According to publication PMC6291168:
These are yes or no findings as the source states them, for the method shown. Binding seen in cells or lysates may run through a third protein. Some results given as binding are weak or reduced against the parent protein; the word gives no strength. Where a sequence is shown, tags or fusion partners need not be part of it. Values belong to the binder of their own block, whether it stands above or below them.

Tests used:
[1] = target: T1, Myc-tagged Erg (pEF6-Erg) (mouse) (UniProt P81270); test: co-IP; Cos-7 cells co-transfected with Myc-Erg and Flag-Fli1, 24 h; NP40 lysis buffer (0.5% NP-40, 50 mM Tris-HCl, 50 mM NaCl, 1 mM EDTA); IP with anti-Myc or anti-Flag overnight, Protein G beads; immunoblot with anti-Myc-Tag or anti-Flag
T1 sequence: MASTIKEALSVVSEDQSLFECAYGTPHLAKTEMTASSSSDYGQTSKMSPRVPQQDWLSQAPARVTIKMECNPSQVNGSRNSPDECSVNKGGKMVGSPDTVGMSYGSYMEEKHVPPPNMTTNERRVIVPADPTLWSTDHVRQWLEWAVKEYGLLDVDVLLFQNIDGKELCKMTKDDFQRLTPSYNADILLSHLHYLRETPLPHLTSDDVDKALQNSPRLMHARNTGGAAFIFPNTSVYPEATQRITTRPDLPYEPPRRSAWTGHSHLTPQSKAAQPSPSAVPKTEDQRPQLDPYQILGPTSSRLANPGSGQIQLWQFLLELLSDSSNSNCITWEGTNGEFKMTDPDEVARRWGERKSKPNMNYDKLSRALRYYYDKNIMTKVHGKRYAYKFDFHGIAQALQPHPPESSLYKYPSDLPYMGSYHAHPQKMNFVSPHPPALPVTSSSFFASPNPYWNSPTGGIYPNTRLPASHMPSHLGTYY

[2] = target: T2, Flag-tagged Fli1 (pFlag-CMV2-Fli1) (mouse) (UniProt P26323); test: as above
T2 sequence: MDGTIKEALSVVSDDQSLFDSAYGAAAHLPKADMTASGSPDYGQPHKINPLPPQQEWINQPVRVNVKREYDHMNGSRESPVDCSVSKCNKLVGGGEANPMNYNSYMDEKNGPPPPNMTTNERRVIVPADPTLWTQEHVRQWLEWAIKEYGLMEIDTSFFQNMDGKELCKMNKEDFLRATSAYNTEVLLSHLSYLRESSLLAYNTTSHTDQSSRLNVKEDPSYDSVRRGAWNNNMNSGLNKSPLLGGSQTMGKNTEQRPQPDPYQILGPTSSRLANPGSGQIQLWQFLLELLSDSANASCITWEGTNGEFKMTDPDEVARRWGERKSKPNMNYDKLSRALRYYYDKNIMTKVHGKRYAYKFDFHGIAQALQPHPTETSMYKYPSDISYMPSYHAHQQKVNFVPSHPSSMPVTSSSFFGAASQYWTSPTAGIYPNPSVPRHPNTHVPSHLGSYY

binding [1]: binds
B1: Flag-tagged Fli1 (pFlag-CMV2-Fli1) (protein, UniProt P26323 1-452)
chain: T2 sequence

binding [2]: binds
B2: Myc-tagged Erg (pEF6-Erg) (protein, UniProt P81270-4 1-479)
chain: T1 sequence
